Experimental data: paper PMC5996148
The other results are listed elsewhere or left out.

What was measured:
Assay in all cases: protein microarray (ProtoArray v5.0), streptavidin-Alexa Fluor 647
Settings in all cases: 3'-biotin; 20 mM Tris (pH 7.5), 5 mM MgCl2, 100 mM KCl, 0.1% Tween-20, A/T-rich and random oligonucleotide blockers; temperature not stated; high values mean tight binding
[1] = system: cAMP-dependent protein kinase type I-beta regulatory subunit (human)
[2] = system: cAMP-dependent protein kinase type II-beta regulatory subunit (human)
[3] = system: cDNA FLJ30744 fis, clone FEBRA2000378. (human)
[4] = system: cDNA clone IMAGE:2906290, complete cds (human)
[5] = system: cDNA clone IMAGE:3949276, partial cds (human)
[6] = system: cDNA clone IMAGE:4292790 (human)
[7] = system: cDNA clone IMAGE:4396549 (human)
[8] = system: cDNA clone IMAGE:4903661, complete cds (human)
[9] = system: cDNA clone IMAGE:5263629 (human)
[10] = system: cDNA clone MGC:12166 IMAGE:3828551 (human)

In the case of “GGTGACAGGGGTATGGGGAGGGG [G4-2 biotinylated (Ct1)]”, the binding signal [1] is reported as -0.393 z-score, the binding signal [2] is reported as -0.39 z-score and the binding signal [3] is reported as -0.371 z-score. The binding signal [4] was -0.393 z-score, the binding signal [5] was -0.359 z-score and the binding signal [6] was -0.4 z-score. The binding signal [7] was -0.395 z-score, the binding signal [8] was 3.12 z-score and the binding signal [9] was -0.398 z-score. The binding signal [10] was -0.361 z-score.
